Assay results from the supplement of paper PMC10727501.
The list shows a part of the results. Repeats in this data set agree poorly, so a single value says little.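 Free-swimming zebrafish larvae were assessed for O-bend response probability to dark flashes (naive: first five; training: remaining flashes across four 60-flash blocks; test: later 60-flash block) and for OMR turning toward alternating leftward/rightward LED motion. Six treated larvae were compared against sixty 0.1% DMSO controls; hits required |SSMD|≥2.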

test system: Danio rerio larvae (5 dpf, TLF); assay: Prob-Test (SSMD vs DMSO vehicle); higher = higher than vehicle (e.g. higher dark-flash O-bend response probability, or better optomotor performance); details: 10 µM; pre-incubation: 30-90 min

SMILES	Prob-Test
Cc1cc(C)nc(NS(=O)(=O)c2ccc(NC(=S)NC(=O)COc3ccc(Br)cc3Cl)cc2)n1	-0.227
NC(=O)c1cccnc1 [Nicotinamide (Vitamin B3)]	-0.0465
COc1cc2ncnc(Nc3cccc(Cl)c3)c2cc1OC [AG-1478 (Tyrphostin AG-1478)]	-0.658
N#CC[C@H](C1CCCC1)n1cc(-c2ncnc3[nH]ccc23)cn1	0.176
CC(C)[C@@H](C)/C=C/[C@@H](C)[C@@H]1CC[C@H]2C3=CC=C4C[C@@H](O)CC[C@]4(C)[C@@H]3CC[C@@]21C [Ergosterol]	0.637
CC(C(O)c1ccc(O)cc1)N1CCC(Cc2ccccc2)CC1.CC(C(O)c1ccc(O)cc1)N1CCC(Cc2ccccc2)CC1.O=C(O)[C@H](O)[C@@H](O)C(=O)O (configuration not stated) [Ifenprodil Tartrate]	-0.58
NC(=O)c1ncn([C@@H]2O[C@H](CO)[C@@H](O)[C@@H]2O)c1O [Mizoribine]	-0.0911
O=NN(CCCl)C(=O)NC1CCCCC1 [Lomustine]	0.257
CC(=O)CCCCn1c(=O)c2c(ncn2C)n(C)c1=O [Pentoxifylline]	0.566
OCCn1cc(-c2cnc3nnn(Cc4ccc5ncccc5c4)c3n2)cn1	0.355
COc1ccc(CNc2nc(N3CCC[C@H]3CO)ncc2C(=O)NCc2ncccn2)cc1Cl [Avanafil]	0.24
CCO[C@H]1OC(=O)C[C@@H]1NC(=O)[C@@H]1CCCN1C(=O)[C@@H](NC(=O)c1ccc(N)c(Cl)c1)C(C)(C)C	-0.023

Two entries picked at random from those above, as already listed:
SMILES	Prob-Test
CC(C)[C@@H](C)/C=C/[C@@H](C)[C@@H]1CC[C@H]2C3=CC=C4C[C@@H](O)CC[C@]4(C)[C@@H]3CC[C@@]21C [Ergosterol]	0.637
CC(=O)CCCCn1c(=O)c2c(ncn2C)n(C)c1=O [Pentoxifylline]	0.566
